Laboratory results published in PubChem BioAssay AID504467 (National Center for Advancing Translational Sciences (NCATS), 2011).
The campaign covered roughly 330,000 compounds. About 7,700 (2.3%) were called active. This list was built around the results that the source calls inconclusive (neither active nor inactive); the mix of calls is not that of the screen. The call rests on the fitted dose curve; in most records, active means well fitted inhibition curve with a large enough effect; inconclusive means small, poorly fitted or top-dose-only effect, or effect the other way; inactive means flat fitted curve, though single readings scatter. Where the call is inconclusive, the potency comes from a doubtful curve fit.

Assay: qHTS screen for small molecules that inhibit ELG1-dependent DNA repair in human embryonic kidney (HEK293T) cells expressing luciferase-tagged ELG1; further: nearly all actives have a fitted effect of over 55% in size
Settings: HEK293T ELG1-luciferase reporter, luminescence, 16 h, DNA damage induced by 5-fluorouridine; activity change, negative = inhibition: at 46.1 µM (top of the series)
Summary of the method: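 Overnight (16 hr) co-exposure of 2,000 cells/well to 5-fluorouridine and compound at 37 °C preceded detection. Luciferase was quantified via ONE-Glo luminescence; loss of signal denotes inhibition.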
On the % scale 0 is the no-effect control and ±100 the full control effect; potency means the concentration at half of the fitted maximal effect.

SMILES	Potency	activity change, negative = inhibition
O=C(c1ccc(-n2nc(C(F)(F)F)c3c2CCCC3)cc1)N1CCOCC1	active: 5.17 µM	–
Cc1c(Cl)cccc1NC(=O)Nc1ccc(C(=O)N2CCCC2)cc1	inconclusive: 11.6 µM [activator, partial curve]	–
CN(C(=O)COC(=O)c1ccc(Cl)c(S(=O)(=O)N2CCCCCC2)c1)C1CCS(=O)(=O)C1 (configuration not stated)	inconclusive: 3.66 µM [inhibitor, single point]	–
Cc1ccccc1NC(=O)Nc1ccc2c(c1)CCC2	inconclusive: 11.6 µM [activator, partial curve]	–
CCOC(=O)c1c(C)[nH]c(C(=O)OCC(=O)NC2(C#N)CCCCC2)c1C	–	inactive: -15.6%
COc1ccc(C(=O)NCCCOc2cccc(NC(C)=O)c2)cc1	–	inactive: 13.5%
CC(Oc1ccccc1F)C(=O)/C=C/N(C)C (configuration not stated)	–	inactive: 2.01%
Cc1ccc(-n2cc(CN3CCNC(=O)CC3)c(-c3cccc(C)c3)n2)cc1	–	inactive: -16.7%
CC1CCCC(C)N1CC(O)COc1ccc(Cl)cc1 (configuration not stated)	inconclusive: 2.82 µM [activator, single point]	–
CCOC(=O)c1ccc(NC(=O)CN2C(=O)C(=O)N(CC(C)C)C2=O)cc1	inconclusive: 20.6 µM [activator, partial curve, poor fit]	–
CCN(CC(=O)Nc1ccccc1OC)C(=O)CC1CC2CCC1C2 (configuration not stated)	inconclusive: 0.92 µM [activator, full curve, poor fit]	–
CCOc1ccc(CN2CCN(Cc3nc(C(C)C)cs3)CC2CCO)cc1 (configuration not stated)	inconclusive: 29.1 µM [inhibitor, single point]	–
Oc1ccc(-c2nc(-c3ccc(F)cc3)c(-c3ccncc3)[nH]2)cc1	–	inactive: 0.412%
NNC(=O)CN1CCN(c2ncc(C(F)(F)F)cc2Cl)CC1	–	inactive: -12.6%
CCN(CC)C(=O)CS(=O)(=O)CC(=O)Nc1cc(OCCOC)c(Cl)cc1Cl	–	inactive: -5.89%
CCCCn1nc(C(=O)N2CCN(S(=O)(=O)c3ccccc3)CC2)c2ccccc2c1=O	inconclusive: 23.1 µM [inhibitor, single point]	–
COc1cc2c(cc1OC)C(c1cccc([N+](=O)[O-])c1)N(C(=O)c1ccccc1C(=O)O)CC2 (configuration not stated)	–	inactive: 16%
CCCCN(C(=O)c1ccc(N2CCCC2=O)cc1)c1c(N)n(CCCC)c(=O)[nH]c1=O	–	inactive: 10.1%
O=C(CCS(=O)(=O)Cc1ccccc1)N1CCN(c2ccc([N+](=O)[O-])cc2)CC1	inconclusive: 18.3 µM [inhibitor, partial curve, poor fit]	–
O=C1NC(=O)c2cc3ccccc3cc21	–	inactive: 0%
Cc1cccc(C)c1NC(=O)C(=O)NCC1CCCN1S(=O)(=O)c1cccs1 (configuration not stated)	inconclusive: 3.26 µM [inhibitor, partial curve, poor fit]	–
Cc1ccc(NC(=S)N=Nc2c(O)n(C)c3ccc(S(=O)(=O)N4CCOCC4)cc23)cc1C	–	inactive: 10.9%
Cc1ccc(NC(=O)CSCC(=O)NNC(=O)c2ccoc2C)cc1	inconclusive: 23.1 µM [activator, single point]	–
COc1cccc(CNC(=O)COC(=O)CNC(=O)c2ccc(-c3ccccc3)cc2)c1	–	inactive: 16.3%

As a working copy, part of the list above.
SMILES	Potency	activity change, negative = inhibition
CCOC(=O)c1ccc(NC(=O)CN2C(=O)C(=O)N(CC(C)C)C2=O)cc1	inconclusive: 20.6 µM [activator, partial curve, poor fit]	–
CCN(CC(=O)Nc1ccccc1OC)C(=O)CC1CC2CCC1C2 (configuration not stated)	inconclusive: 0.92 µM [activator, full curve, poor fit]	–
CCOc1ccc(CN2CCN(Cc3nc(C(C)C)cs3)CC2CCO)cc1 (configuration not stated)	inconclusive: 29.1 µM [inhibitor, single point]	–
Oc1ccc(-c2nc(-c3ccc(F)cc3)c(-c3ccncc3)[nH]2)cc1	–	inactive: 0.412%
NNC(=O)CN1CCN(c2ncc(C(F)(F)F)cc2Cl)CC1	–	inactive: -12.6%
CCN(CC)C(=O)CS(=O)(=O)CC(=O)Nc1cc(OCCOC)c(Cl)cc1Cl	–	inactive: -5.89%
CCCCn1nc(C(=O)N2CCN(S(=O)(=O)c3ccccc3)CC2)c2ccccc2c1=O	inconclusive: 23.1 µM [inhibitor, single point]	–
COc1cc2c(cc1OC)C(c1cccc([N+](=O)[O-])c1)N(C(=O)c1ccccc1C(=O)O)CC2 (configuration not stated)	–	inactive: 16%
CCCCN(C(=O)c1ccc(N2CCCC2=O)cc1)c1c(N)n(CCCC)c(=O)[nH]c1=O	–	inactive: 10.1%
O=C(CCS(=O)(=O)Cc1ccccc1)N1CCN(c2ccc([N+](=O)[O-])cc2)CC1	inconclusive: 18.3 µM [inhibitor, partial curve, poor fit]	–
O=C1NC(=O)c2cc3ccccc3cc21	–	inactive: 0%
Cc1cccc(C)c1NC(=O)C(=O)NCC1CCCN1S(=O)(=O)c1cccs1 (configuration not stated)	inconclusive: 3.26 µM [inhibitor, partial curve, poor fit]	–
Cc1ccc(NC(=S)N=Nc2c(O)n(C)c3ccc(S(=O)(=O)N4CCOCC4)cc23)cc1C	–	inactive: 10.9%
Cc1ccc(NC(=O)CSCC(=O)NNC(=O)c2ccoc2C)cc1	inconclusive: 23.1 µM [activator, single point]	–

Further structures

SMILES	Potency	activity change, negative = inhibition
Cn1c(SCC(=O)N2CCCC2)nnc1-c1cccs1	inconclusive: 20.6 µM [activator, single point]	–
O=C(Cc1ccc(Cl)cc1)Nc1ccccc1C(=O)Nc1ccc(C(=O)O)cc1	inconclusive: 29.1 µM [inhibitor, single point]	–
N#C/C(=C/c1ccc(-c2ccc(S(N)(=O)=O)cc2)o1)C(=O)Nc1ccccc1	inconclusive: 32.6 µM [activator, single point]	–
CC(NC(=O)c1ccccc1NC(=O)c1ccco1)C(=O)O (configuration not stated)	inconclusive: 8.2 µM [activator, partial curve]	–
Fc1ccccc1-c1nnc2n1N=C(c1ccc(OC(F)F)c(OCC3CC3)c1)CS2	inconclusive: 16.4 µM [activator, partial curve, poor fit]	–
O=C(N/N=C/c1cc(Cl)cc([N+](=O)[O-])c1O)NC12CC3CC(CC(C3)C1)C2	–	inactive: -27.6%
Cc1ccc(NC(=O)CSc2ccccc2)cc1S(=O)(=O)N1CCOCC1	–	inactive: -8.78%
COc1ccc2c(ccn2S(=O)(=O)c2ccccc2)c1	–	inactive: 12.9%
COc1ccc(S(=O)(=O)N(Cc2nc3ccccc3c(=O)[nH]2)C2CCCC2)cc1	inconclusive: 29.1 µM [inhibitor, single point]	–
CCOc1ccccc1NC(=O)C1CCCN(S(=O)(=O)c2ccccc2)C1 (configuration not stated)	inconclusive: 14.6 µM [inhibitor, partial curve]	–
FC(F)(F)c1cc(Oc2ccccc2Cl)nc(-c2ccccn2)n1	–	inactive: -3.08%
C[C@@H]1CCC(=O)N(CC[C@H](N=[N+]=[N-])c2ccccc2)CC1	–	inactive: 8.02%
Cc1ccnc(SCC(=O)c2ccc(Br)cc2)c1C#N	inconclusive: 10.3 µM [activator, partial curve]	–
CCOC(=O)c1ccccc1NC(=O)c1c(F)c(F)c(F)c(F)c1F	–	inactive: 7.08%
COc1cccc(/C=N/NC(=O)c2oc3nc(-c4ccccc4)cc(-c4ccco4)c3c2N)c1	active: 16.4 µM	–
S=C(NC1CCCCC1)N1CCc2[nH]c3ccccc3c2C1	–	inactive: -4.47%
COc1ccc(OC)c(-c2csc(NC(=O)CSc3ccc(Br)cc3)n2)c1	inconclusive: 29.1 µM [inhibitor, single point]	–
CC(C)Cn1c(N)c(C(=O)COC(=O)CCNS(=O)(=O)c2ccccc2)c(=O)n(C)c1=O	inconclusive: 18.3 µM [inhibitor, single point]	–
COc1ccc(NC(=O)N(C)C[C@H]2Oc3c(NC(=O)C4CCCCC4)cccc3C(=O)N([C@H](C)CO)C[C@@H]2C)cc1	–	inactive: 2.15%
Nc1ccc(Cl)c(-c2nc3ncccc3o2)c1	inconclusive: 29.1 µM [activator, single point]	–
O=C(NCc1cccnc1)Nc1cccc(Cl)c1Cl	inconclusive: 18.3 µM [activator, partial curve, poor fit]	–
O=C(Nc1nnc(-c2ccncc2)o1)c1ccccc1F	–	inactive: -9.26%
Cc1cc(NS(=O)(=O)c2ccc(NC(=O)CSc3nc4ncc(Br)cc4[nH]3)cc2)nc(C)n1	inconclusive: 29.1 µM [activator, single point]	–
O=C(NCCc1ccccn1)c1ccc(OC2CCN(Cc3ccccn3)CC2)cc1	inconclusive: 20.6 µM [activator, partial curve]	–

SMILES	Potency	activity change, negative = inhibition
Cc1ccc(SCc2nc3ncccn3c2Br)cc1	inconclusive: 16.4 µM [activator, single point]	–
Cc1[nH]c(=O)[nH]c(=O)c1/C=C/C(=O)OCC(C)C	–	inactive: 24.1%
Cc1ccc(N(C(=O)Cn2nnc3ccccc32)C(C(=O)NC2CCCCC2)c2cn(C)nc2C)cc1 (configuration not stated)	inconclusive: 29.1 µM [activator, partial curve, poor fit]	–
Cc1nc(N2CCN(S(=O)(=O)c3ccccc3)CC2)c2c3c(sc2n1)CC(C)CC3 (configuration not stated)	inconclusive: 25.9 µM [inhibitor, partial curve, poor fit]	–
Cc1nc2nc(SCc3ccccc3)nn2c(C)c1C	inconclusive: 18.3 µM [activator, partial curve]	–
Cn1c(SCC(=O)N2c3ccccc3Sc3ccccc32)nc2ccccc21	–	inactive: -0.404%
Cc1cc(C)cc(OCC(=O)Nc2cccc(S(=O)(=O)NC3=NCCC3)c2)c1	–	inactive: -18.3%
CC12CNCC(C)(CN(C(c3ccccc3)c3ccccc3)C1)C2	–	inactive: -16.7%
Cc1[nH]c2ccccc2c1N=Nc1cccc(C(=O)O)c1	inconclusive: 4.61 µM [activator, full curve]	–
Cc1cc(C)cc(Nc2cc(=O)n(C3CCCCC3)c(=O)[nH]2)c1	inconclusive: 8.2 µM [inhibitor, partial curve, poor fit]	–
O=C(c1ccc(-n2cncn2)c([N+](=O)[O-])c1)N1CCN(S(=O)(=O)c2ccccc2F)CC1	–	inactive: 1.59%
Cc1cccc(OCCSc2nncn2C)c1	inconclusive: 29.1 µM [activator, single point]	–
CC(C)CC(=O)n1sc(NC(=O)c2ccccc2)nc1=O	inconclusive: 25.9 µM [inhibitor, partial curve, poor fit]	–
CC[C@]12c3[nH]c4ccc(Cl)cc4c3CCN1C(=O)[C@@H](CC(=O)NCCc1ccccn1)C[C@@H]2C(=O)N1CCN(C(=O)C2CC2)CC1	–	inactive: 2.87%
O=C1NCC(c2ccccc2)C1C(=O)N/N=C\c1ccc(-c2cccc(Cl)c2Cl)o1 (configuration not stated)	inconclusive: 23.1 µM [inhibitor, single point]	–
Cc1nn(C(C)(C)C)c(C)c1/C=N/OC(=O)Nc1ccc(Cl)c(Cl)c1	–	inactive: -21.4%
CC(C)CCNC(=O)c1cccc(C(=O)NCCC(C)C)c1	–	inactive: -8.08%
O=[N+]([O-])c1ccc(N2N=C(c3ccccc3)CC2c2ccccc2O)cc1 (configuration not stated)	–	inactive: -16%
CC(C)=CC(=O)Nc1ccc(OCc2ccccc2)cc1	inconclusive: 11.6 µM [activator, partial curve]	–
O=C(Nc1cccnc1)c1cc2c(s1)-c1ccccc1OC2	inconclusive: 29.1 µM [inhibitor, single point]	–
CCn1c(NC(=O)c2cccs2)nc2ccccc21	–	inactive: 19.7%
CC(C)c1ccc(-c2nn[nH]n2)cc1	inconclusive: 23.1 µM [activator, partial curve]	–
COc1ccc(-c2ccc(NCCC3=CCCCC3)nn2)cc1OC	inconclusive: 20.6 µM [activator, partial curve, poor fit]	–
CSc1ncccc1C(=O)NC1CCCc2c1cnn2-c1ccc(C)c(C)c1 (configuration not stated)	inconclusive: 2.59 µM [inhibitor, partial curve, poor fit]	–
